Among all 330,000 compounds or so, about 610 (0.18%) were called active. The inconclusive results got no clear call from the source; some entries with a clear call stand among them for comparison. Calls follow the shape of the full dose curve. A potency beside an inconclusive call is a rough fit, not a confirmed value.
test: qHTS of Yeast-based Assay for SARS-CoV PLP; also: nearly all actives have a fitted effect of over 55% in size; conditions: S. cerevisiae expressing SARS-CoV PLpro; Potency: growth rescue; series mostly up to 32.9 µM
Potency is read from the fitted curve at half-maximal effect.

Row | Structure (SMILES) | Potency
1 | CCn1c(SCC(=O)NC2CC2)nnc1-c1ccc(OC)cc1 | inconclusive: 20 µM [activator, single point]
2 | CCOc1ccc(NC(=S)N2CCC(N(C)CC3CCCO3)CC2)cc1 (centres undefined) | inconclusive: 0.282 µM [activator, full curve]
3 | O=c1[nH]c(CN(CCO)CCO)nc2c1C1(CCCCC1)Cc1ccccc1-2 | inactive
4 | O=C(CN1CCC(O)(c2ccccc2F)CC1)NCCc1c[nH]c2ccccc12 | inconclusive: 11.2 µM [activator, single point]
5 | C=CCc1cccc(/C=N/NC(=O)C(C)Nc2cccc(C)c2)c1O (centres undefined) | inconclusive: 3.16 µM [activator, full curve]
6 | CCCCN(C(=O)c1cc(CC)c(C)s1)c1c(N)n(CCC)c(=O)[nH]c1=O | inactive
7 | CCOC(=O)C(C)Oc1c(C(=O)OC)sc2ncccc12 (centres undefined) | inactive
8 | COc1ccc(/C=C2\CN(Cc3ccccc3)C/C(=C\c3ccc(OC)cc3)C2=O)cc1 | active: 20 µM
9 | CC(=O)N1c2ccc(S(=O)(=O)NCc3ccccc3Cl)cc2CC1C (centres undefined) | inconclusive: 20 µM [activator, single point]
10 | O=C(O)CCNc1ccc2c(c1)OCCO2 | inactive
11 | C/C(=N\O)C(=O)NCCCn1ccnc1 | inconclusive: 20 µM [activator, single point]
12 | CCCn1c(C2CCCN2c2nc(C)cs2)nc2cc(Cl)c(Cl)cc21 (centres undefined) | inconclusive: 11.2 µM [activator, partial curve]
13 | C=CCNC(=O)C1CC2Cn3c(nc4cc(Cl)c(Cl)cc43)C2N1C (centres undefined) | inconclusive: 4.47 µM [activator, single point]
14 | COc1ccccc1-n1c(SCC(=O)Nc2ccc3c(c2)OCO3)nc2c(c1=O)SCC2 | inconclusive: 3.98 µM [activator, single point]
15 | CN(C(=O)c1cccs1)c1ccc(OCC(=O)Nc2ccc(C(=O)O)cc2)cc1 | inactive
16 | COc1ccc(NC(C)C(=O)Nc2cc(C(F)(F)F)ccc2N2CCOCC2)c(OC)c1 (centres undefined) | inactive
17 | COC(=O)c1ccc(NC(=O)CS(=O)(=O)c2ccccc2)cc1 | inconclusive: 1.12 µM [activator, full curve]
18 | CC1(C)CC(NC(=S)NC2CC2)CC(C)(C)N1 | inactive
19 | CCC(NC(=O)c1ccncc1)c1ccccc1 (centres undefined) | inactive
20 | Clc1ccc(OCCCN2CCc3ccccc3C2)c(Br)c1 | inconclusive: 17.8 µM [activator, single point]
21 | CCOC(=O)C1CCCN(C2CC(=O)N(c3ccc(NC(C)=O)cc3)C2=O)C1 (centres undefined) | inactive
22 | Cc1ccc(C)c(OCC(=O)Nc2ccc(S(=O)(=O)Nc3ccccn3)cc2)c1C | inconclusive: 0.282 µM [activator, full curve, poor fit]
23 | Cc1ccc(C(=O)N2CCN(c3ncccn3)CC2)cc1S(=O)(=O)N1CCCCC1 | inconclusive: 2.51 µM [activator, single point]
24 | O=[N+]([O-])CC1(n2nc3ccccc3n2)CCCCC1 | inactive
25 | COc1cc(OC)c2c(-c3ccccc3)cc(=O)oc2c1C(CCN1CCCC(C)C1)c1ccc(N(C)C)cc1 (centres undefined) | inactive

Exported in markdown: part of the list above

| Row | Structure (SMILES) | Potency |
| --- | --- | --- |
| 5 | C=CCc1cccc(/C=N/NC(=O)C(C)Nc2cccc(C)c2)c1O (centres undefined) | inconclusive: 3.16 µM [activator, full curve] |
| 6 | CCCCN(C(=O)c1cc(CC)c(C)s1)c1c(N)n(CCC)c(=O)[nH]c1=O | inactive |
| 7 | CCOC(=O)C(C)Oc1c(C(=O)OC)sc2ncccc12 (centres undefined) | inactive |

Following part.

Row | Structure (SMILES) | Potency
26 | COc1ccc(C)cc1NC(=O)NC1CCCc2ccccc21 (centres undefined) | inactive
27 | O=C(N/N=C/c1c(O)n(CCC2=CCCCC2)c(=O)[nH]c1=O)c1ccccc1 | active: 10 µM
28 | Cc1ccc(C(=O)NCC(c2ccco2)N2CCc3ccccc32)cc1C (centres undefined) | inactive
29 | Cc1ccccc1CN1CCN(C2CCC2)CC1CCO (centres undefined) | inactive
30 | C[n+]1ccc(C(=O)Nc2ccccc2Cl)cc1 | inconclusive: 20 µM [activator, single point]
31 | C/C(CCC1CC(C)OC1=O)=N\NC(N)=S (centres undefined) | inconclusive: 20 µM [activator, single point]
32 | COc1cc(NS(=O)(=O)c2ccc(NC(=O)COc3ccc(C)cc3)cc2)nc(OC)n1 | active: 11.2 µM
33 | Cc1cc(C)c2cc3c(N)c(C(=O)N4CCOCC4)sc3nc2c1 | inactive
34 | COc1ccc([N+](=O)[O-])cc1NCc1ccccc1 | inconclusive: 20 µM [activator, single point]
35 | Nc1ccc2cn[nH]c2c1 | inactive
36 | CCCCC(CC)Cn1c(O)c(/C=C2\C=NN=C2c2ccccc2)sc1=S (centres undefined) | inconclusive: 2.24 µM [activator, partial curve]
37 | Cc1ccccc1CS(=O)(=O)Cc1ccc(C(=O)NCCc2ccccc2)o1 | inconclusive: 10 µM [activator, partial curve]
38 | CCOC(=O)C1=C(C)N(c2ccccc2)C(=O)C1 | inactive
39 | Cc1ccc2cc(CCNC(=O)CC(C)(C)C)c(=O)[nH]c2c1C | inconclusive: 4.47 µM [activator, partial curve]
40 | Cc1ccc2ccc(C(Nc3ccccn3)c3ccccc3)c(O)c2n1 (centres undefined) | active: 11.2 µM
41 | O=C(CSc1nnnn1-c1ccc(C(=O)O)cc1)NC1CC1 | inconclusive: 11.2 µM [activator, partial curve]
42 | CC(NC(=O)c1ccco1)C(=O)Nc1nc(-c2ccccn2)cs1 (centres undefined) | inconclusive: 22.4 µM [activator, single point]
43 | Cn1cccc1Cc1nnc(SCC(=O)Nc2nccs2)n1C | inconclusive: 3.16 µM [activator, single point]
44 | CCOc1ccc(NS(=O)(=O)c2ccc(C(=O)NCC(c3ccco3)N(C)C)cc2)cc1 (centres undefined) | inactive
45 | c1ccc(CNn2c(N3CCOCC3)nc3ccccc32)cc1 | inconclusive: 4.47 µM [activator, partial curve]
46 | Cn1c(=O)c2c(SCC(=O)NCc3ccco3)nc(-c3ccccc3Cl)nc2n(C)c1=O | inconclusive: 2.82 µM [activator, partial curve]
47 | CN(C)S(=O)(=O)c1cccc(NC(=O)CN2C(=O)NC(Cc3c[nH]c4ccccc34)C2=O)c1 (centres undefined) | inactive
48 | CC(C)(C)OC(=O)N[C@@H](Cc1ccccc1)C(=O)N[C@@H](CO)[C@H](O)[C@@H]1C[C@@H]1C(=O)NC1CC1 | inactive
49 | O=c1c2cnn(-c3ccc(F)cc3)c2ncn1Cc1ccccc1 | inconclusive: 17.8 µM [activator, single point]

Source: PubChem BioAssay AID485353 (National Center for Advancing Translational Sciences (NCATS), 2010)
